Only a part is listed here, and it is no random draw. At the low end of the ranking, values are background and their order means little.
What was measured:
Assay in all cases: DAPPL (digital affinity profiling via proximity ligation, sequencing)
Conditions in all cases: 10 mM Tris-HCl pH 7.5, 50 mM NaCl, 1 mM DTT, 4% glycerol, room temperature, 30 min; GST-TFs on glutathione beads, 16-mer random dsDNA library, 0.1% …; high values mean tight binding; double strand, one strand shown; scale: fold enrichment (6-mer frequency, TF over GST control)
ETS2 = target: T1, ETS2 (UniProt P15036)
T1 sequence: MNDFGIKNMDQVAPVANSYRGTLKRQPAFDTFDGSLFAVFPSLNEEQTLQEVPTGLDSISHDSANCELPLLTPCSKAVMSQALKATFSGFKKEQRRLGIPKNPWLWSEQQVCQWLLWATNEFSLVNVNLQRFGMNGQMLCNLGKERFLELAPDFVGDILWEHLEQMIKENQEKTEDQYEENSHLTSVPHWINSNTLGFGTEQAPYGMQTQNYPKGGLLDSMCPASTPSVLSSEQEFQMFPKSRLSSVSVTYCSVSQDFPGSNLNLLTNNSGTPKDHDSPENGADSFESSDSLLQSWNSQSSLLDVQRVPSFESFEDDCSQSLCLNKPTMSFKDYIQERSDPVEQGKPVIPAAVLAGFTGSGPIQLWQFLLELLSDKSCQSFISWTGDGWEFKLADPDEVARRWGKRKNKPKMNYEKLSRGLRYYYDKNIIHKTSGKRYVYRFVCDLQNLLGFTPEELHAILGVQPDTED

ETV3 = target: T2, ETV3 (UniProt P41162-2)
T2 sequence: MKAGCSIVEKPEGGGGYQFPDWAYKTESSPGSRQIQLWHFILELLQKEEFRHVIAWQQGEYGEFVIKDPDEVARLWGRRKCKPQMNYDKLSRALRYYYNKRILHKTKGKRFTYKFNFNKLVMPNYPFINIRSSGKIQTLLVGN

ELK3 = target: T3, ELK3 (UniProt P41970)
T3 sequence: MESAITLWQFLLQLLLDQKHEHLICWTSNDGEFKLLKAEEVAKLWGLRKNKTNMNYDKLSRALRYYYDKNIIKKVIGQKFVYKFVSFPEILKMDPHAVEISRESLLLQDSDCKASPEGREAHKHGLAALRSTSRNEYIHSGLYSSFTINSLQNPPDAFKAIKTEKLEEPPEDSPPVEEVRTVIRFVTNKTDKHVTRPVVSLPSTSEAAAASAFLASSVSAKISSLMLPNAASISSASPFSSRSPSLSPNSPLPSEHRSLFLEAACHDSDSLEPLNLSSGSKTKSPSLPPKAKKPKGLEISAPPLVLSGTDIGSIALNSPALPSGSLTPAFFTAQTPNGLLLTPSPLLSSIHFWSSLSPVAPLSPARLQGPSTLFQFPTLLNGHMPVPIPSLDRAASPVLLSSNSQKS

Sequence | binding signal (ETS2) | binding signal (ETV3) | binding signal (ELK3)
CCCACA | 1.13 | 1.1 | –
CAGAAT | 0.983 | 0.928 | –
GCCTAT | 1.09 | – | –
CGACGT | 1.05 | 1.09 | 1.07
CTTAGG | 1.23 | 1.1 | 1.05
CCCTAA | 1.15 | 1.2 | 1.28
GCTACC | 1.22 | 1.24 | –
CTCCTG | 1.86 | – | –
CGTCCC | 1.38 | 1.41 | 1.57
CCTATC | 1.2 | 1.2 | –
TGCAAC | 1.28 | – | –
TTTTAA | 1.28 | 1.23 | –
CTGCCT | 1.16 | – | –
CGATTT | 1.26 | 1.18 | 1.04
CTTCTA | 1.53 | – | –
CCCGAC | 1.27 | – | –
CTTGTG | 1.5 | – | –

Sequence | binding signal (ETS2) | binding signal (ETV3) | binding signal (ELK3)
TATCCG | 2.55 | 2.57 | –
ATCTAA | 1.2 | 1.24 | –
TAATAG | 1.2 | 1.15 | –
CACTTG | 1.32 | – | –
AAAGGT | 1.04 | – | –
TTTTTA | 1.34 | – | –
ATTGAT | 1.29 | – | –
ATCATA | 1.03 | 1.09 | –
TTTCCT | 2.44 | – | –
TTCAGT | 1 | 0.946 | –
ACGCTG | 1.06 | 1.26 | 0.961
AATTCC | 1.86 | 2.09 | –
TGCCTG | 1.28 | 1.31 | –
CTTCAA | 1.25 | 1.29 | 1.13
TATAAC | 1.25 | – | 1.18
CCTACG | – | 1.38 | –
ACCTCG | 1.11 | – | 0.981

As a short view, part of the list above:
Sequence | binding signal (ETS2) | binding signal (ETV3) | binding signal (ELK3)
TAATAG | 1.2 | 1.15 | –
CACTTG | 1.32 | – | –
